# Assay results: PubChem BioAssay AID485298 (National Center for Advancing Translational Sciences (NCATS), 2010)
# Among all 320,000 compounds or so, about 740 (0.23%) were called active. Inconclusive means that the source gave no clear call. Such entries were picked first, then a sample of the others. The call rests on the fitted dose curve; in most records, active means well fitted activation curve with a large enough effect; inconclusive means small, poorly fitted or top-dose-only effect; inactive means no such curve, though single readings can be large or run the other way. Where the call is inconclusive, the potency comes from a doubtful curve fit.
# Assay: qHTS Assay for Small Molecule Inhibitors of Mitochondrial Division or Activators of Mitochondrial Fusion; further: nearly all actives have a fitted effect of over 45% in size
# Settings: S. cerevisiae fusion-defective mutant growth rescue, CellTiterGlo 48 h; series mostly up to 46.1 µM
# Summary of the method: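 Temperature-sensitive fusion-defective S. cerevisiae (e.g. fzo1-1, mgm1-5) were grown with compound in YPEG medium (3% ethanol, 3% glycerol) for 48 hours at 37C. Growth rescue was measured as viability by CellTiterGlo luminescence after 10 minutes at ambient.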
# Potency means the concentration at half of the fitted maximal effect.
row,Compound,Potency
1,CCC(C)NC(=O)c1c(N)n(CCCOC)c2nc3ccccc3nc12 (stereo unspecified),"inconclusive: 12.6 µM [activator, partial curve]"
2,COC(=O)C1=C(c2ccc(F)cc2OCc2ccccc2)C[C@@H]2CC[C@H]1N2C(=O)NCc1ccc2[nH]ccc2c1,"inconclusive: 3.16 µM [activator, single point]"
3,CCc1c(C)nc(N)nc1N1N=C1SCC(=O)OC,inactive
4,c1ccc(Nc2ccc(Nc3ccccc3)cc2)cc1,"inconclusive: 22.4 µM [activator, single point]"
5,CC1CCC(C(C)C)C(OC(=O)COC(=O)c2ccccc2N)C1 (stereo unspecified),"inconclusive: 15.8 µM [activator, partial curve]"
6,O=C(O)C(F)(F)S(=O)(=O)O,active: 3.16 µM
7,CCN(CC)c1ccc(CC2C(=O)N(C)C(=O)N(C)C2=O)cc1,inactive
8,CCCCOc1nc2ccccc2c(=O)n1-c1ccccc1,"inconclusive: 35.5 µM [activator, single point]"
9,Cc1ccc(OCCn2c(=O)oc3ccc(C)cc32)cc1,"inconclusive: 12.6 µM [activator, partial curve]"
10,O=[N+]([O-])c1cc2c(cc1CNCCc1ccc3c(c1)OCO3)OCO2,inactive
11,COC(=O)C1=C(c2ccccc2OCc2ccccc2)C[C@@H]2CC[C@H]1N2C(=O)NCc1ccc(Cl)cc1,"inconclusive: 7.94 µM [activator, single point]"
12,Cn1ccc(NC(=O)CCl)n1,inactive
13,O=C(O)c1nn(Cc2ccc(Cl)cc2Cl)c2ccccc12,"inconclusive: 23.1 µM [activator, single point]"
14,Cc1sc2ncnc(N3CCC(C(=O)Nc4ccc(C#N)c(Cl)c4)CC3)c2c1C,"inconclusive: 17.8 µM [activator, single point]"
15,CCCCN1C(=O)NC(=O)C2(Cc3c(nc4c(C)cccn4c3=O)N3CCc4ccccc4C32)C1=O (stereo unspecified),"inconclusive: 15.8 µM [activator, single point]"
16,COC(=O)C1=C(c2ccc(-c3ccccc3)c(F)c2)C[C@@H]2CC[C@H]1N2C(=O)NCCOc1ccc(OC)cc1,"inconclusive: 11.2 µM [activator, partial curve]"
17,CCOC(=O)c1ncn2c1[C@@H]1CCCN1C(=O)c1cc(OC)ccc1-2,"inconclusive: 13 µM [activator, partial curve]"
18,Cc1ccccc1NP(=O)(Oc1ccccc1F)Oc1ccccc1F,"inconclusive: 25.1 µM [activator, single point]"
19,COC(=O)C1=C(c2ccc(-c3ccccc3)c(F)c2)C[C@@H]2CC[C@H]1N2C(=O)NCc1ccco1,"inconclusive: 31.6 µM [activator, single point]"
20,CCCn1c(=O)c2[nH]c(C3CCCC3)nc2n(CCCOC(=O)c2ccc(S(=O)(=O)F)cc2)c1=O,"inconclusive: 3.66 µM [activator, single point]"
21,C=CCN1CC[C@]23c4c5ccc(O)c4O[C@@H]2/C(=N/N=C2\CC[C@@]4(O)C6Cc7ccc(O)c8c7[C@@]4(CCN6CC=C)[C@@H]2O8)CC[C@@]3(O)C1C5,"inconclusive: 7.31 µM [activator, partial curve, poor fit]"

row,Compound,Potency
1,O=P(Nc1cccnc1)(Oc1ccccc1Cl)Oc1ccccc1Cl,"inconclusive: 11.2 µM [activator, partial curve]"
2,COc1ccccc1-n1c(-c2ccccc2Br)nc2ccccc2c1=O,inactive
3,COC(=O)C1=C(c2ccc3ccccc3c2)C[C@@H]2CC[C@H]1N2C(=O)NCc1ccc(F)cc1,"inconclusive: 35.5 µM [activator, partial curve]"
4,c1ccc(-c2[nH]c(-c3ccccc3)[n+](CC3CO3)c2-c2ccccc2)cc1 (stereo unspecified),"inconclusive: 5.62 µM [activator, single point]"
5,CC(C)Oc1cccnc1N(C)C1CCN(Cc2ccccc2)CC1,"inconclusive: 25.9 µM [activator, partial curve, poor fit]"
6,CCOC(=O)[C@]1(C#N)[C@@H]2C=CC(C(C)=O)=CN2[C@@H](C(N)=O)[C@@H]1c1ccsc1,inactive
7,O=[N+]([O-])c1ccc(Cl)c([N+](=O)[O-])c1,inactive
8,O=C1NC(=O)C(=Cc2ccc(N3CCOCC3)cc2)C(=O)N1,inactive
9,O=c1c2ccccc2nc(/C=C/c2ccc3c(c2)OCO3)n1-c1ccccc1,"inconclusive: 20 µM [activator, single point]"
10,COC(=O)C1=C(c2ccc(-c3ccccc3)c(F)c2)C[C@@H]2CC[C@H]1N2C(=O)NC(C)C,"inconclusive: 12.6 µM [activator, single point]"
11,COC(=O)C1=C(c2ccc(OC(F)(F)F)cc2)C[C@@H]2CC[C@H]1N2C(=O)NC1CCCCC1,"inconclusive: 12.6 µM [activator, single point]"
12,CC(=NCCc1c[nH]c2ccccc12)c1c(O)n(Cc2ccccc2)c(=O)[nH]c1=O,inactive
13,Oc1ccccc1-[n+]1c(-c2ccccc2)cc(-c2ccccc2)c(O)c1-c1ccccc1,active: 11.2 µM
14,N=C(N)c1c(O)n(C2CCCCC2)c(=O)n(C2CCCCC2)c1=O,"inconclusive: 15.8 µM [activator, single point]"
15,CC(C)(O)[C@H]1O[C@H]2CC[C@@]3(C)[C@@](O)(CC[C@H]4Cc5c([nH]c6ccccc56)[C@@]43C)C2=CC1=O,"inconclusive: 35.5 µM [activator, single point]"
16,COC(=O)C1=C(c2ccc(F)cc2OCc2ccccc2)C[C@@H]2CC[C@H]1N2C(=O)NCc1ccccc1OC,"inconclusive: 11.2 µM [activator, partial curve]"
17,COC(=O)C1=C(c2ccc(OC(F)(F)F)cc2)C[C@@H]2CC[C@H]1N2C(=O)NC1Cc2ccccc2C1,"inconclusive: 31.6 µM [activator, single point]"
18,CCCn1c(C(=O)c2ccccc2)nc2ccccc21,"inconclusive: 22.4 µM [activator, single point]"
19,CC(=O)[C@H]1CC[C@H]2[C@@H]3CC[C@H]4C[C@](C)(O)CC[C@]4(C)[C@H]3CC[C@]12C,"inconclusive: 4.61 µM [activator, partial curve]"
20,CCC(CC)C1C(C#N)=C(N)Oc2c1c(=O)oc1ccccc21 (stereo unspecified),"inconclusive: 11.2 µM [activator, partial curve]"
21,COC(=O)C1=C(c2ccccc2OCc2ccccc2)C[C@@H]2CC[C@H]1N2C(=O)NCc1ccc(C(F)(F)F)cc1,"inconclusive: 20 µM [activator, single point]"

# Looked up by structure from the entries so far (three):
row,Compound,Potency
10,COC(=O)C1=C(c2ccc(-c3ccccc3)c(F)c2)C[C@@H]2CC[C@H]1N2C(=O)NC(C)C,"inconclusive: 12.6 µM [activator, single point]"
2,COc1ccccc1-n1c(-c2ccccc2Br)nc2ccccc2c1=O,inactive
5,CC(C)Oc1cccnc1N(C)C1CCN(Cc2ccccc2)CC1,"inconclusive: 25.9 µM [activator, partial curve, poor fit]"

# More entries follow.

row,Compound,Potency
1,C[Se]C[C@H](N)C(=O)O,"inconclusive: 20.6 µM [activator, single point]"
2,COC(=O)C1=C(c2ccccc2OCc2ccccc2)C[C@@H]2CC[C@H]1N2C(=O)NCc1ccc(F)cc1,"inconclusive: 12.6 µM [activator, partial curve]"
3,COC(=O)C1=C(c2ccccc2OCc2ccccc2)C[C@@H]2CC[C@H]1N2C(=O)NCc1cccc(F)c1,"inconclusive: 22.4 µM [activator, single point]"
4,Cc1cccc(-n2c(-c3ccco3)nc3ccccc3c2=O)c1C,"inconclusive: 35.5 µM [activator, single point]"
5,COC(=O)C1=C(c2ccccc2OCc2ccccc2)C[C@@H]2CC[C@H]1N2C(=O)NCCOc1ccccc1Cl,"inconclusive: 22.4 µM [activator, single point]"
6,CC(Cc1ccccc1)NC(=O)/C=C/c1ccc(Cl)cc1 (stereo unspecified),"inconclusive: 22.4 µM [activator, single point]"
7,C=CCc1cc(C=C2C(=O)N(C)C(=O)N(C)C2=O)cc(OCC)c1OCc1ccccc1,"inconclusive: 11.2 µM [activator, partial curve]"
8,CCCCC(=O)N/N=C/c1c(O)n(-c2cccc3ccccc23)c(=O)[nH]c1=O,inactive
9,COc1cccc(C2CCN(CC(=O)Nc3cc(Cl)ccc3OC)CC2O)c1 (stereo unspecified),"inconclusive: 10 µM [activator, partial curve]"
10,CC(=O)O[C@H]1C[C@@H]2CC[C@@H]3[C@H](CC[C@@]4(C)[C@H]3C[C@H]([N+]3(C)CCCCC3)[C@@H]4OC(C)=O)[C@@]2(C)C[C@@H]1[N+]1(C)CCCCC1,"inconclusive: 8.2 µM [activator, partial curve, poor fit]"
11,CCCCn1c(O)c(C(C)=NCc2cc(OC)cc(OC)c2)c(=O)[nH]c1=O,inactive
12,NC(CCCCCP(=O)(O)O)C(=O)O (stereo unspecified),"inconclusive: 0.82 µM [activator, full curve, poor fit]"
13,CCOC(=O)C1(c2ccccc2)CCN(CC(=O)Nc2cccc3ccccc23)CC1,"inconclusive: 11.2 µM [activator, partial curve]"
14,O=[N+]([O-])c1ccc(-c2ccccc2)c([As](=O)(O)O)c1,inactive
15,CN(C)C(=O)Oc1c(Cl)cc(Cl)c2cccnc12,inactive
16,COC(=O)C1=C(c2ccc(F)cc2OCc2ccccc2)C[C@@H]2CC[C@H]1N2C(=O)N1CCCC1,"inconclusive: 15.8 µM [activator, single point]"
17,O=C(O)c1ccccc1Nc1cccc(C(F)(F)F)c1,"inconclusive: 17.8 µM [activator, partial curve]"
18,COC(=O)C1=C(c2ccc(-c3ccccc3)c(F)c2)C[C@@H]2CC[C@H]1N2C(=O)NC1CCCCC1,"inconclusive: 3.16 µM [activator, single point]"
19,O=C1Nc2ccccc2/C1=C/c1nc2ccccc2c(=O)n1-c1ccc(O)cc1,inactive
